From PubChem BioAssay AID493014 (National Center for Advancing Translational Sciences (NCATS), 2011)
Out of some 340,000 compounds screened, about 170 (0.05%) were called active. The shares of active, inactive and inconclusive entries below differ from those in the screen. Calls follow the shape of the dose curve; as a rule, active = well fitted inhibition curve with a large enough effect in the signal ratio, with a control signal flat (not every such curve was filed as active); inconclusive = small, poorly fitted or top-dose-only effect, or effect the other way, or a change in a side signal; inactive = flat fitted curve, though single readings scatter; the % refers to the signal ratio. Potencies of inconclusive entries are doubtful fits and often do not repeat.

Test: qHTS Assay to Find Inhibitors of Chronic Active B-Cell Receptor Signaling;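 as to activity change, negative = inhibition: plate controls were basal doxycycline-induced cells for no effect and cells given 10 µM MG132 for full effect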
Conditions: ABC-DLBCL IkBa-CBG/CBR reporter, luminescence ratio (green luciferase fused to IkBa over red control in TMD8 lymphoma cells), 4 h; activity change, negative = inhibition: at 46.1 µM (top of the series) unless noted
Method in brief: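 TMD8 human ABC-DLBCL cells with doxycycline-inducible IκBα–green luciferase fusion and unfused red luciferase, in 0.5% FBS medium; compounds up to 46 uM, 4 h at 37C. Green/red luminescence ratio, filter-overlap corrected, fitted to concentration-response curves.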
Potency is read from the fitted curve at half-maximal effect.

| SMILES | activity change, negative = inhibition | Potency |
| --- | --- | --- |
| C=CCn1c(SCc2c(C)noc2C)nc2cc(C(=O)O)ccc2c1=O | inactive: -14.4% |  |
| CCc1ccc(CN2CCCC(C(=O)Nc3ccc(-c4cscn4)cc3)C2)o1 (centres undefined) | inconclusive: -9.63% |  |
| Cc1cccc(OCc2nnc(SCC(=O)N3c4ccccc4CC3C)n2C)c1C (centres undefined) |  | inconclusive: 16.4 µM [falling, partial curve, poor fit] |
| COc1ccc(C(CNC(=O)CSc2ccc(Br)cc2)N2CCOCC2)cc1 (centres undefined) | inconclusive: 10.2% |  |
| Cc1cc2cc(CNC(=O)CC(C)C)ccc2n1C | inconclusive: 11.4% |  |
| O=C(NCc1cccnc1)/C(=C/c1ccc(-c2cccc(Cl)c2)o1)S(=O)(=O)c1ccccc1 |  | inconclusive: 3.16 µM [falling, partial curve] |
| N#Cc1ccsc1NC(=O)CSc1nncs1 | inconclusive: -2.4% |  |
| Cc1ccc(NC(=S)c2ccccc2)cc1 | inconclusive: 0.304% |  |
| CCc1ccccc1N1C(=O)CN(Cc2cc(OC)c(OC)c(OC)c2)C1=S | inactive: -0.441% |  |
| CCN(CC(=O)Nc1ccccc1C(=O)OC)S(=O)(=O)c1ccccc1 | inconclusive: 9.24% |  |
| COc1ccccc1NC(=O)COC(=O)/C=C/c1ccccc1[N+](=O)[O-] | inactive: -4.58% |  |
| Cc1ccc(-c2ccc(C(=O)Nc3ccccc3)o2)c2ccccc12 |  | inconclusive: 20.6 µM [falling, single point] |
| CC1CCN(c2c(NCc3ccc(C(=O)N4c5ccccc5CC4C)cc3)c(=O)c2=O)CC1 (centres undefined) | inconclusive: -12.4% |  |
| COc1ccc(CCN2CC(C(=O)Nc3cccc(C(C)=O)c3)CC2=O)cc1OC (centres undefined) | inconclusive: 0.354% |  |
| CCC(=O)Nc1nnc(-c2ccc(OC)cc2)o1 | inconclusive: -13.7% |  |
| CCOc1ccc(NS(=O)(=O)c2ccc(C(=O)NCC(c3ccco3)N3CCCC3)cc2)cc1 (centres undefined) | inconclusive: 0.371% |  |
| Cc1cc(N/N=C/c2ccc(Cl)cc2Cl)nc(NCc2ccccc2)n1 | inactive: -1.88% |  |
| C/C(=N\NC(=O)c1cc2ccccc2cc1O)c1ccc2c(c1)OCO2 | inactive: 9.21% |  |
| CCc1ccc(OCc2nc(-c3ccc(OC)cc3)no2)c(Br)c1 |  | inconclusive: 31.6 µM [rising, single point] |
| COc1ccc(-c2nn(-c3ccccc3)cc2C2CC(c3cccs3)=NN2C(=O)CCC(=O)O)cc1 (centres undefined) |  | inconclusive: 28.2 µM [falling, single point] |
| COc1ccc(-c2cc3ccccc3cn2)cc1 |  | inconclusive: 16.4 µM [falling, single point] |
| Cc1ccc(C(=O)NN2C(=O)/C(=C/c3cn(C)c4ccccc34)SC2=S)cc1 | inactive: 0.985% |  |
| CCN(Cc1ccccc1)S(=O)(=O)c1ccc(C(=O)N(CCCN(C)C)c2nc3cc(C)cc(C)c3s2)cc1 |  | inconclusive: 23.1 µM [falling, single point] |
| C/C(=C\C(=S)Nc1ccccc1)Nc1ccccc1 |  | inconclusive: 23.1 µM [falling, single point] |
| FC(F)(F)c1cc(-c2ccccc2)nc(NC2CCCC2)n1 | inconclusive: 29.1% |  |
| CN(C(=O)COC(=O)c1cccnc1Nc1ccccc1F)C1CCS(=O)(=O)C1 (centres undefined) |  | inconclusive: 9.2 µM [falling, partial curve, poor fit] |
| c1ccc(CN2CCN(C3=Nc4cccc5cccc3c45)CC2)cc1 | inconclusive: 27.3% |  |

Some of the entries so far, tab-delimited:
SMILES	activity change, negative = inhibition	Potency
O=C(NCc1cccnc1)/C(=C/c1ccc(-c2cccc(Cl)c2)o1)S(=O)(=O)c1ccccc1		inconclusive: 3.16 µM [falling, partial curve]
N#Cc1ccsc1NC(=O)CSc1nncs1	inconclusive: -2.4%	
Cc1ccc(NC(=S)c2ccccc2)cc1	inconclusive: 0.304%	

Whole records from above.
N#Cc1ccsc1NC(=O)CSc1nncs1 as listed: activity change, negative = inhibition: inconclusive: -2.4%
COc1ccc(CCN2CC(C(=O)Nc3cccc(C(C)=O)c3)CC2=O)cc1OC (centres undefined) as listed: activity change, negative = inhibition: inconclusive: 0.354%

(continued)

| SMILES | activity change, negative = inhibition | Potency |
| --- | --- | --- |
| CC1CCCCC1NC(=O)C1CCCN1S(=O)(=O)c1cccc2nsnc12 (centres undefined) |  | inconclusive: 25.9 µM [falling, single point] |
| COc1cc(/C=C/c2ccc3cccc(O)c3n2)cc(Cl)c1OC |  | inconclusive: 35.5 µM [falling, single point] |
| Cc1cc(C)n2nc(N)c(N=Nc3cccc(Cl)c3)c2n1 | inconclusive: 4.14% |  |
| Cc1ccc(NC(=O)c2cc3ccccc3cc2O)cc1 |  | inconclusive: 25.1 µM [falling, single point] |
| Cc1ccccc1OCCC(=O)OCC(=O)Nc1cc(S(=O)(=O)N2CCOCC2)ccc1Cl | inconclusive: -1.92% |  |
| CCOC(=O)C1CCCCN1Cc1cc(OC)ccc1OC (centres undefined) | inconclusive: 8.62% |  |
| O=C1c2ccc(Br)cc2C(=O)N1c1ccc(Cl)cn1 |  | inconclusive: 22.4 µM [falling, single point] |
| CC(C)CCNC(=O)C(c1ccco1)N(Cc1cccs1)C(=O)Cn1nnc2ccccc21 (centres undefined) | inconclusive: -125% |  |
| Nn1c(Cc2cccc3ccccc23)nnc1SCCOc1ccc(Br)cc1 | inconclusive: 6% |  |
| Cc1nc2cc(F)ccc2n1C1CCN(C(=O)c2c(F)cccc2F)CC1 | inactive: -5.05% |  |
| CCC(=O)c1ccc(-c2ccccc2)cc1 | inconclusive: 4.51% |  |
| CCC(C)(C)NC(=O)COc1ccc(C(=O)c2ccccc2)cc1 | inactive: -1.78% |  |
| Cc1ccc(C)c(N2CCN(C(=O)c3cccn4c(=O)c5sccc5nc34)CC2)c1 | inconclusive: -14% |  |
| O=C(Nc1ccc(F)cc1F)Nc1csc2ccccc12 | inconclusive: 4.08% |  |
| Cc1ccc2nc(CSc3nc(C)ccc3C#N)[nH]c2c1 |  | inconclusive: 0.0517 µM [rising, full curve, poor fit] |
| COc1ccc(Nc2cc(C)c3ccccc3n2)cc1 | inconclusive: 21.2% |  |
| CCOc1ccc(C)cc1S(=O)(=O)N1CCCCC1 | inconclusive: 2.98% |  |
| O=C(NC(=S)NC12CC3CC(CC(C3)C1)C2)c1ccc(F)cc1 | inactive: 3.79% |  |
| COc1ccc(-n2c(SCC(=O)Nc3sc4c(c3C#N)CCCC4)nnc2-c2ccc(O)cc2)cc1 | inconclusive: 9.55% |  |
| CCC1(c2ccc(Cl)cc2)NC(=O)N(Cc2ccc(C(=O)OC)cc2)C1=O (centres undefined) | inconclusive: 0.231% |  |
| CCOc1ccc(C2C(=O)N(C3CCCCCC3)CC(=O)N2CCc2ccc(OC)c(OC)c2)cc1OC (centres undefined) | inactive: 2.16% |  |
| Cc1cc(NC(=O)CSc2nc3ccccc3n2CCC#N)no1 | inactive: -4.17% |  |
| N#C/C(=C\c1ccccc1)C(=O)Nc1cccnc1 | inconclusive: 4.55% |  |
| COc1ccccc1N1CCN(c2ccc(-c3ccccc3)nn2)CC1 |  | inconclusive: 23.1 µM [falling, partial curve] |
| O=C(Nc1ccc2c(c1)nc1n2CCN(C2CCCCC2)C1)c1ccco1 | inactive: -0.286% |  |
| CC(C)(C)c1ccc(/C=C2/SC(N3CCCC3)=NC2=O)cc1 | inconclusive: 4.58% |  |
| COCc1c(CCl)cnc(C)c1O |  | inconclusive: 15.8 µM [falling, partial curve, poor fit] |

| SMILES | activity change, negative = inhibition | Potency |
| --- | --- | --- |
| COc1ccc(NC(=O)CN(c2ccc(Cl)cc2)S(C)(=O)=O)cc1OC | inconclusive: -1.46% |  |
| CCn1cc(C(=O)NCc2ccc3c(c2)OCO3)c2cc(OC)c(OC)cc2c1=O | inconclusive: 18.8% |  |
| CC1=NN(C(=O)c2ccc(C)o2)C(O)(c2ccccc2)C1 (centres undefined) |  | inconclusive: 29.1 µM [falling, single point] |
| c1ccc(-c2csc3nnc(SCc4ccc5c(c4)OCO5)n23)cc1 | inconclusive: -17.8% |  |
| O=C(CCC(=O)c1cccs1)NNC(=O)c1ccccc1O |  | inconclusive: 29.1 µM [falling, single point] |
| COc1ccc(OC)c(/C=C/C(=O)N(C)CC(=O)Nc2ccc(C)cc2)c1 | inactive: -4.1% |  |
| CCNc1ccc(C(=O)OCC)cc1NC(=O)c1cccc(S(=O)(=O)N(C)c2ccccc2)c1 | inactive: 1.76% |  |
| O=C(Cn1c(=O)oc2ccccc21)Nc1ccc(Br)cc1 | inconclusive: -1.84% |  |
| CCOC(=O)[C@@H]1[C@H]2COc3ccc(Br)cc3[C@H]2N2C(=O)N(c3ccc(Cl)cc3)C(=O)[C@]12C | inconclusive: -0.236% |  |
| CCOC(=O)C1CCN(S(=O)(=O)c2cccc(-c3cn4cc(Cl)ccc4n3)c2)CC1 | inactive: 12.6% |  |
| Cc1ccc(NC2=C(Cl)C(=O)N(C3CCCCC3)C2=O)cc1 |  | inconclusive: 14.6 µM [falling, partial curve] |
| Nc1[nH]c(N=NC(=O)c2ccc(F)cc2)c2ccccc12 |  | inconclusive: 29.1 µM [rising, single point] |
| C=CCC[C@H](Cc1ccc(F)cc1)C(=O)OC[C@@H](NC(=O)[C@H](CC=C)CC(=O)NCCO)C(C)(C)C | inactive: 1.23% |  |
| Cc1noc(/C=C/c2nn(C)cc2Cl)c1[N+](=O)[O-] | inconclusive: 3% |  |
| O=C(c1ccco1)N1CCN(c2ncnc3c2nnn3Cc2ccccc2Cl)CC1 |  | inconclusive: 20.6 µM [falling, single point] |
| CC(C)c1ccc(N(CC(=O)NCc2ccc(F)cc2)C(=O)c2csnn2)cc1 | inactive: -1.21% |  |
| COc1cccc(-c2cc(C(=O)Nc3cccc(O)c3)no2)c1 | inconclusive: 172% |  |
| COc1cccc(-c2cn3nc(C)c(C)nc3n2)c1 | inconclusive: 2.61% |  |
| COc1ccc(CN(C(=O)c2nsc(Cl)c2Cl)C(C(=O)NC2CCCCC2)c2ccc(OC)cc2)cc1 (centres undefined) |  | inconclusive: 7.08 µM [rising, partial curve] |
| COc1cc(OC)cc(-c2nc(-c3ccccc3)no2)c1 | inconclusive: 8.81% |  |
| CC(CCc1ccccc1)NC(=O)COC(=O)c1ccc(S(C)(=O)=O)c([N+](=O)[O-])c1 (centres undefined) | inconclusive: 26.3% |  |
| O=C(N/N=C/c1cc2c3c(c1O)CCCN3CCC2)c1ccccc1O |  | inconclusive: 20.6 µM [falling, partial curve] |
| CCCc1cc(C(=O)Nc2ccccc2SC)no1 |  | inconclusive: 4.61 µM [falling, single point] |
| O=C(CNC(=S)N(Cc1ccccc1)Cc1cccs1)NCc1ccc(F)cc1 | inconclusive: 7.8% |  |
